Reference: patent publication US20200325476

Target: alpha-synuclein A53T (phospho-S129 positive, in mouse brain tissue) (Homo sapiens) (UniProt P37840)
Assay: binding assay
Conditions: Cy3.5 aptamer delivered by TfR-aptamer liposome co-localizes with anti-phospho-S129 alpha-synuclein antibody in mouse brain; protein in cells; protein details: transgenic line M83 mouse (Prnp-SNCA*A53T); single-stranded DNA

**Q.** Does “ATAGTCCCATCATTCATTGTAAGGAAACGCTACGGGGTGGGTACGGCAAGATATTAGCAAGTGTCA [a-syn-1 (1LBwAAjJ)]” bind?
**A.** Result: binds

Results from cells or extracts need not show a direct contact.
